{"source": "PubChem BioAssay AID1259261 (Sanger Institute, 2017)", "screen": "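siRNA screen across the kinome for kinases that are essential and partners synergising with drugs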 (primary screen)", "system": "HCC2998 human colorectal cancer cells", "reagent": "siRNA pool against human genes", "challenge": "anchor drugs BYL719 1 µM, cetuximab 5 µg/ml or trametinib 10 nM, each compared with DMSO vehicle", "measured": "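Viability as fraction of non-targeting control plus robust z-score without drug; synergy scores compare knock-down plus drug against each alone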", "scale": "viability z-score, knock-down alone: higher = more viable cells than controls", "call rule": "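Essential when the siRNA-alone viability robust z-score is below -3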", "meaning of the calls": "active = essential; inactive = no change", "note": "In all, the deposit lists 794 reagents; below is a random part of them. 10 of them (1.3%) count as active. 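Calls reflect knock-down alone without drug; synergy scores with BYL719, cetuximab or trametinib do not affect calls.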 Further read-outs or replicates are left out here. The record does not give: the amount of reagent, the time to read-out."}
{"Target gene": "MAP3K5 (GeneID 4217)", "viability z-score, knock-down alone": 1.21, "Outcome": "inactive"}
{"Target gene": "MAPK3 (GeneID 5595)", "viability z-score, knock-down alone": -0.423, "Outcome": "inactive"}
{"Target gene": "CDKL5 (GeneID 6792)", "viability z-score, knock-down alone": -0.846, "Outcome": "inactive"}
{"Target gene": "CHUK (GeneID 1147)", "viability z-score, knock-down alone": -1.61, "Outcome": "inactive"}
{"Target gene": "LATS2 (GeneID 26524)", "viability z-score, knock-down alone": 1.07, "Outcome": "inactive"}

A stretch from the list above, as a working copy:
{"Target gene": "MAP3K5 (GeneID 4217)", "viability z-score, knock-down alone": 1.21, "Outcome": "inactive"}
{"Target gene": "MAPK3 (GeneID 5595)", "viability z-score, knock-down alone": -0.423, "Outcome": "inactive"}

More entries follow:
{"Target gene": "CIB2 (GeneID 10518)", "viability z-score, knock-down alone": -1.98, "Outcome": "inactive"}
{"Target gene": "EIF2AK3 (GeneID 9451)", "viability z-score, knock-down alone": 1.19, "Outcome": "inactive"}
{"Target gene": "MARK3 (GeneID 4140)", "viability z-score, knock-down alone": -0.301, "Outcome": "inactive"}
{"Target gene": "MAPKAPK3 (GeneID 7867)", "viability z-score, knock-down alone": -0.886, "Outcome": "inactive"}
{"Target gene": "HK2 (GeneID 3099)", "viability z-score, knock-down alone": -0.463, "Outcome": "inactive"}
{"Target gene": "PIK3CB (GeneID 5291)", "viability z-score, knock-down alone": -1.58, "Outcome": "inactive"}
{"Target gene": "GUK1 (GeneID 2987)", "viability z-score, knock-down alone": 1.21, "Outcome": "inactive"}
